PubChem BioAssay AID1259424 | University of Nebraska Medical Center – 2018

Test: 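Find knockdowns that reproduce the expression shifts seen after KSR1 loss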 (primary screen)
Cell system: human HCT116 colon cancer cells
Knock-down reagent: siRNA pool against human genes, 50 nM
Detection: 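Six signature mRNAs by branched-DNA multiplex assay, scaled to two housekeeping genes and non-targeting median, log2; matched to mean KSR1 knockdown profile by Pearson correlation and euclidean distance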
Reading the numbers: mean correlation with KSR1 profile: higher = expression change more like KSR1 knockdown
The deposit covers about 14,000 reagents; below is a random part of them. 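Higher correlation or smaller distance means closer resemblance to KSR1 loss; control wells, including KSR1 knockdowns, recur on many plates.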 Not all columns of the deposit are shown. Not given: the time to read-out.

THOC6 (GeneID 79228) → mean correlation with KSR1 profile: 0.0155
AKT3 (GeneID 10000) → mean correlation with KSR1 profile: -0.0949
PALS1 (GeneID 64398) → mean correlation with KSR1 profile: -0.146
RALB (GeneID 5899) → mean correlation with KSR1 profile: 0.759
FARP1 (GeneID 10160) → mean correlation with KSR1 profile: 0.736
ELOVL6 (GeneID 79071) → mean correlation with KSR1 profile: 0.167
SHMT1 (GeneID 6470) → mean correlation with KSR1 profile: -0.471
KIR2DS4 (GeneID 3809) → mean correlation with KSR1 profile: -0.349
DNASE1 (GeneID 1773) → mean correlation with KSR1 profile: -0.276
MPL (GeneID 4352) → mean correlation with KSR1 profile: -0.617
FSHR (GeneID 2492) → mean correlation with KSR1 profile: 0.518
RIC3 (GeneID 79608) → mean correlation with KSR1 profile: -0.0841

Reformatted: entries from further up
PALS1 (GeneID 64398)
- mean correlation with KSR1 profile: -0.146

RALB (GeneID 5899)
- mean correlation with KSR1 profile: 0.759
